Measured values: the DeepSol protein solubility set

Test: soluble on expression in E. coli; label from the status in PepcDB or PDB records

| Sequence | soluble on expression in E. coli |
| --- | --- |
| ATTNPSQLLPLELVDKCIGSRIHIVMKSDKEIVGTLLGFDDFVNMVLEDVTEFEITPEGRRITKLDQILLNGNNITMLVPGGEGPEV | not soluble |
| MKKYALVTGGSGGIGSAISKQLIQDGYTVYVHYNNSEEKVNELQKEWGEVIPVQANLASSDGAEQLWEQIEHPLDAIIYAAGKSIFGLVTDVTNDELNDMVELQVKSIYKLLSMALPSMIQRRSGNIVLVSSIWGQIGASCEVLYSMVKGAQNSYVKALAKEVSLSGIRVNAVAPGAIETEMLNVFSEEDKNEIAEEIPLGRLGLPEEVAKTVSFLVSPGASYITGQIIGVNGGWHC | not soluble |
| GAMEPPYFIEPLEHVEAAIGEPITLQCKVDGTPEIRIAWYKEHTKLRSAPAYKMQFKNNVASLVINKVDHSDVGEYTCKAENSVGAVASSAVLVIKERKLPPSFARKLKDVHETLGFPVAFECRINGSEPLQVSWYKDGELLKDDANLQTSFIHNVATLQILQTDQSHVGQYNCSASNPLGTASSSAKLTLSEHEVPPFFDLKPVSVDLALGESGTFKCHVTGTAPIKITWAKDNREIRPGGNYKMTLVENTATLTVLKVTKGDAGQYTCYASNVAGKDSCSAQLGVQEPPRFIKKLEPSRIVKQDEHTRYECKIGGSPEIKVLWYKDETEIQESSKFRMSFVESVAVLEMYNLSVEDSGDYTCEAHNAAGSASSSTSLKVKEPPVFRKKPHPVETLKGADVHLECELQGTPPFQVSWHKDKRELRSGKKYKIMSENFLTSIHILNVDSADIGEYQCKASNDVGSDTCVGSITLKAPPRFVKKLSDISTVVGEEVQLQATIEGAEPISVAWFKDKGEIVRESDNIWISYSENIATLQFSRAEPANAGKYTCQIKNEAGTQECFATLSVLE | soluble |
| SNALEVKPEINFVNIGERCNVAGSRKFLRLVNEKKYDEALSIARQQVEDGALVIDVNMDDGLLDARTEMTTFLNLIMSEPEIARVPVMIDSSKWEVIEAGLKCLQGKSIVNSISLKEGEEVFLEHARIIKQYGAATVVMAFDEKGQADTAARKIEVCERAYRLLVDKVGFNPHDIIFDPNVLAVATGIEEHNNYAVDFIEATGWIRKNLPGAHVSGGVSNLSFSFRGNNYIREAMHAVFLYHAIQQGMDMGIVNPGTSVLYSDIPADTLEKIEDVVLNRRPDAAERLIELAEALKETMGG | soluble |
| MSGLGDSSSDPANPDSHKRKGSPCDTLASSTEKRRREQENKYLEELAELLSANISDIDSLSVKPDKCKILKKTVDQIQLMKRMEQEKSTTDDDVQKSDISSSSQGVIEKESLGPLLLEALDGFFFVVNCEGRIVFVSENVTSYLGYNQEELMNTSVYSILHVGDHAEFVKNLLPKSLVNGVPWPQEATRRNSHTFNCRMLIHPPDEPGTENQEACQRYEVMQCFTVSQPKSIQEDGEDFQSCLICIARRLPRPPAITGVESFMTKQDTTGKIISIDTSSLRAAGRTGWEDLVRKCIYAFFQPQGREPSYARQLFQEVMTRGTASSPSYRFILNDGTMLSAHTKCKLCYPQSPDMQPFIMGIHIIDREHSGLSPQDDTNSGMSIPRVNPSVNPSISPAHGVARSSTLPPSNSNMVSTRINRQQSSDLHSSSHSNSSNSQGSFGCSPGSQIVANVALNQGQASSQSSNPSLNLNNSPMEGTGISLAQFMSPRRQVTSGLATRPRMPNNSFPPNISTLSSPVGMTSSACNNNNRSYSNIPVTSLQGMNEGPNNSVGFSASSPVLRQMSSQNSPSRLNIQPAKAESKDNKEIASILNEMIQSDNSSSDGKPLDSGLLHNNDRLSDGDSKYSQTSHKLVQLLTTTAEQQLRHADIDTSCKDVLSCTGTSNSASANSSGGSCPSSHSSLTERHKILHRLLQEGSPSDITTLSVEPDKKDSASTSVSVTGQVQGNSSIKLELDASKKKESKDHQLLRYLLDKDEKDLRSTPNLSLDDVKVKVEKKEQMDPCNTNPTPMTKPTPEEIKLEAQSQFTADLDQFDQLLPTLEKAAQLPGLCETDRMDGAVTSVTIKSEILPASLQSATARPTSRLNRLPELELEAIDNQFGQPGTGDQIPWTNNTVTAINQSKSEDQCISSQLDELLCPPTTVEGRNDEKALLEQLVSFLSGKDETELAELDRALGIDKLVQGGGLDVLSERFPPQQATPPLIMEERPNLYSQPYSSPSPTANLPSPFQGMVRQKPSLGTMPVQVTPPRGAFSPGMGMQPRQTLNRPPAAPNQLRLQLQQRLQGQQQLIHQNRQAILNQFAATAPVGINMRSGMQQQITPQPPLNAQMLAQRQRELYSQQHRQRQLIQQQRAMLMRQQSFGNNLPPSSGLPVQMGNPRLPQGAPQQFPYPPNYGTNPGTPPASTSPFSQLAANPEASLANRNSMVSRGMTGNIGGQFGTGINPQMQQNVFQYPGAGMVPQGEANFAPSLSPGSSMVPMPIPPPQSSLLQQTPPASGYQSPDMKAWQQGAIGNNNVFSQAVQNQPTPAQPGVYNNMSITVSMAGGNTNVQNMNPMMAQMQMSSLQMPGMNTVCPEQINDPALRHTGLYCNQLSSTDLLKTEADGTQQVQQVQVFADVQCTVNLVGGDPYLNQPGPLGTQKPTSGPQTPQAQQKSLLQQLLTE | not soluble |
| MKKVPITVLSGFLGSGKTTLLHHILTNKNNLKVAVIVNDMSEVNIDASLIKKGGFSRTEEKLVEIQNGCICCTLREDLMIEVNRLVENGDIDYIIIESSGISEPIPVAQTFTYTDEVLNIDLTKNCRLDTMVTVVDANRFWDDFADGESLLDRKQAIDENDTREVIDLLIDQIEFANVIILNKIDLLEKEDVIELHHLLKKLNPNAKVLESSFSKVPLQEILNTNLFNYEEASQSAGWIQELNSDYHTPETEEYGINSFVYRRKYPFHPERLMNWLEKWPLDVVRAKGFFWLASRNNMIGLLSQAGSSITIQGAGEWIAALPETERNQMIAEEPEVLKNWDERYGDRITELVFIGIDMNRSVIEQSLDDCLLTEKEMGQKWNTFIDPIPAFTYTS | not soluble |
| MSVEEGMEVELKSEKMDLDDNIPDFVKETVERSGKNPMSLFSELYVHMTGNTPVFDFYNRNQPNGSMKFICVVILNGERIEGNVKSKKKEAKVSCSLKGLEVVLKHVSEYVVPAVKFEEKTTFFEMLREHTYAKFYELCKNNALIYGFEKVIASVFLKINGNLQIIALSTGNKGLRGDKIVNDGTALIDCHAEILARRGLLRFLYSEVLKFSTEPPNSIFTKGKNALVLKPGISFHLFINTAPCGVARIDKKLKPGTSDDLQNSSRLRFKIDKGMGTVLGGASEFEAPQTFDGIMMGERMRTMSCSDKLLRANVLGVQGAILSHFIDPIYYSSIAVAELNNADRLRKAVYSRAATFKPPAPFHVQDVEIGECQVEDTEQSTSAAARSTISSMNWNLADGNTEVVRTSDGMVHDKDMSGADITTPSRLCKKNMAELMITICTLTKTSVDYPISYEELKAGSQEYAAAKKSFITWLRQKDLGIWQRKPREFQMFTIN | not soluble |
| MGHHHHHHSHERLKLGAIFLEGVTVKGVTQVTTQPKLGEVQQKCHQFCGWEGSGFPGAQPVSMDKQNIKLLDLKPYKVSWKADGTRYMMLIDGTNEVFMIDRDNSVFHVSNLEFPFRKDLRMHLSNTLLDGEMIIDRVNGQAVPRYLIYDIIKFNSQPVGDCDFNVRLQCIEREIISPRHEKMKTGLIDKTQEPFSVRNKPFFDICTSRKLLEGNFAKEVSHEMDGLIFQPTGKYKPGRCDDILKWKPPSLNSVDFRLKITRMGGEGLLPQNVGLLYVGGYERPFAQIKVTKELKQYDNKIIECKFENNSWVFMRQRTDKSFPNAYNTAMAVCNSISNPVTKEMLFEFIDRCTA | soluble |
| MGHHHHHHSHMYWHSCHPRPFPAESHCVTPAGVQWRDLGSLQTHCNIHLPGSSDSPASASWVAGITGTRHHTWLIFVFLVVTGFHHVGQAGLKLLTSGDPPSSSSQSAGITGVSHHAQPYSCIFFFFFFEMESESHPVAQGGV | not soluble |
| GSHMAKFVIRPATAADCSDILRLIKELAKYEYMEEQVILTEKDLLEDGFGEHPFYHCLVAEVPKEHWTPEGHSIVGFAMYYFTYDPWIGKLLYLEDFFVMSDYRGFGIGSEILKNLSQVAMRCRCSSMHFLVAEWNEPSINFYKRRGASDLSSEEGWRLFKIDKEYLLKMATEE | soluble |
